No constants are given. Whether binding was seen depends on the method and setting. In cells and extracts the contact can be indirect. Some entries that bind do so weakly or less than the wild type. Sequences can lack the tags named with a protein.
Target: T1, 3×FLAG-fused B4GALNT2 (β1,4-N-acetylgalactosaminyltransferase 2) (UniProt Q8NHY0)
T1 sequence: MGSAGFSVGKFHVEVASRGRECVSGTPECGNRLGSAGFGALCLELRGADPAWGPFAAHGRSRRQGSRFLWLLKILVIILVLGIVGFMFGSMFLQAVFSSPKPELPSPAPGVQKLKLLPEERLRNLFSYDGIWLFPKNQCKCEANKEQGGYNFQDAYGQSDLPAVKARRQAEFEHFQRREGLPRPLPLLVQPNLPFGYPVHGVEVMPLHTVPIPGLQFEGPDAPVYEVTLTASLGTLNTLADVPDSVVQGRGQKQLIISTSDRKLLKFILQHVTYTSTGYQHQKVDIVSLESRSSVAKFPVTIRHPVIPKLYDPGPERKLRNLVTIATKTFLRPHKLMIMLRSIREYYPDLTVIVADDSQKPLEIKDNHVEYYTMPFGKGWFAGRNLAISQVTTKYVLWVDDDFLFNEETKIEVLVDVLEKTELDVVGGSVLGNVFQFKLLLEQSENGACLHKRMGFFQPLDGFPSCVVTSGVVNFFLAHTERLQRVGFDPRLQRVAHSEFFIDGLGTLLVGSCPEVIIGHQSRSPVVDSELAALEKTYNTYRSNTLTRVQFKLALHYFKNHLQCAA
Assay: co-IP; Co-IP verification of 8 candidate proteins with 3×FLAG-B4GALNT2 in MDA-MB-231; further conditions not told

Sequences of proteins named here, by UniProt entry; tags and fusion partners are left off. Residues count along the entry.
UniProt P30530, residues 26-894: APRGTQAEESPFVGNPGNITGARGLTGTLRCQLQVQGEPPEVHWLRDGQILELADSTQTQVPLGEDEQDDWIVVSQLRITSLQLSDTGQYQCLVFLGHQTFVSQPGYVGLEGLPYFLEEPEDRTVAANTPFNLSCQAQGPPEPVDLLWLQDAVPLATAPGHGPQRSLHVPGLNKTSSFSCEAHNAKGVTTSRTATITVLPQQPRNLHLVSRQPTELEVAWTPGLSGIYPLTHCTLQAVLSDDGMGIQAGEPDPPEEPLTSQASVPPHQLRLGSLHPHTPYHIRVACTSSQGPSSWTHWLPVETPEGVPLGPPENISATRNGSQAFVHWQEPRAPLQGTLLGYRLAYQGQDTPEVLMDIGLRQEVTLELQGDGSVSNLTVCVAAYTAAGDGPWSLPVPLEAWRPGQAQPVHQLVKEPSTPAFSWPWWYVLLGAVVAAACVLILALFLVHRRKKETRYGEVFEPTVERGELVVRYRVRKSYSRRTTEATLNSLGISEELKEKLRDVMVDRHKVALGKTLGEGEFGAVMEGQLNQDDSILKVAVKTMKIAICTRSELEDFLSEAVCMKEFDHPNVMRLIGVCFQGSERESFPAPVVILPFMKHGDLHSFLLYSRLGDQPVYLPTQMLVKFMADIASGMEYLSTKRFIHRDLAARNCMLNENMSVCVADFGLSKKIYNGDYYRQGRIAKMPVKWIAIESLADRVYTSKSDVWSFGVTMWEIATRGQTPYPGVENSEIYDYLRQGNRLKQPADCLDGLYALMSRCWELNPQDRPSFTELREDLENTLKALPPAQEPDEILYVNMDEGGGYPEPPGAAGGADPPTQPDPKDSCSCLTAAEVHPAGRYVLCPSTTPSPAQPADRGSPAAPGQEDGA
UniProt P10909, residues 23-449: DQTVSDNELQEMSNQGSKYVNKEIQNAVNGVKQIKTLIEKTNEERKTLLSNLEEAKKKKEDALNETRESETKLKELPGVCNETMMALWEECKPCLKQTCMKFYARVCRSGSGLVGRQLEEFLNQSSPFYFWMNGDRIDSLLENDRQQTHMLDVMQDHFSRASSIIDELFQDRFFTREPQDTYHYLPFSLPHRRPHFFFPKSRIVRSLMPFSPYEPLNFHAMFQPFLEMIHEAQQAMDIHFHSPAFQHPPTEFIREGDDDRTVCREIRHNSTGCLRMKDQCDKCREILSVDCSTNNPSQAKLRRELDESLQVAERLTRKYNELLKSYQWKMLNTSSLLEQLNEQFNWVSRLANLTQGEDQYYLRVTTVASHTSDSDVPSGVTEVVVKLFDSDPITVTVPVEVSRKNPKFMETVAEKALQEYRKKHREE
UniProt Q14240: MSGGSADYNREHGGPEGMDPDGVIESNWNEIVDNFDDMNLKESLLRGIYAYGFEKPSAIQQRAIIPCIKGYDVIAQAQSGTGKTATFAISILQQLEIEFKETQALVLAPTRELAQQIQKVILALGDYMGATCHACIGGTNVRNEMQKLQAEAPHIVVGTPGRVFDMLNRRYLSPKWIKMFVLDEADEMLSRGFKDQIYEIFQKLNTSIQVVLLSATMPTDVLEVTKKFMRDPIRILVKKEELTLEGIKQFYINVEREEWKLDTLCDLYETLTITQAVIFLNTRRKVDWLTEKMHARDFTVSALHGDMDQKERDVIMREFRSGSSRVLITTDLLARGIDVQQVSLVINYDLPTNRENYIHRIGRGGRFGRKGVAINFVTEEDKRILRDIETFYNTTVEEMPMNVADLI

| Substance | binding |
| --- | --- |
| AXL (from UniProt P30530 26-894) (receptor) | binds |
| CLU (from UniProt P10909 23-449) | binds |
| EIF4A2 (from UniProt Q14240 1-407) | binds |
